Source: patent US20090221643A1, “4-PHENYL-3-(2-PROPYLSULFONYLAMINO) TETRAHYDROFURAN DERIVATIVES WHICH POTENTIATE GLUTAMATE RECEPTORS AND ARE USEFUL IN THE TREATMENT OF SCHIZOPHRENIA” (priority 2006, published 2009)
Some of these results come from one statement about several compounds together.

Amino acid sequences for entries named in this document (tags omitted). Residues count along the entry.
UniProt P42262, 25-883 isoform P42262-2 limits assumed: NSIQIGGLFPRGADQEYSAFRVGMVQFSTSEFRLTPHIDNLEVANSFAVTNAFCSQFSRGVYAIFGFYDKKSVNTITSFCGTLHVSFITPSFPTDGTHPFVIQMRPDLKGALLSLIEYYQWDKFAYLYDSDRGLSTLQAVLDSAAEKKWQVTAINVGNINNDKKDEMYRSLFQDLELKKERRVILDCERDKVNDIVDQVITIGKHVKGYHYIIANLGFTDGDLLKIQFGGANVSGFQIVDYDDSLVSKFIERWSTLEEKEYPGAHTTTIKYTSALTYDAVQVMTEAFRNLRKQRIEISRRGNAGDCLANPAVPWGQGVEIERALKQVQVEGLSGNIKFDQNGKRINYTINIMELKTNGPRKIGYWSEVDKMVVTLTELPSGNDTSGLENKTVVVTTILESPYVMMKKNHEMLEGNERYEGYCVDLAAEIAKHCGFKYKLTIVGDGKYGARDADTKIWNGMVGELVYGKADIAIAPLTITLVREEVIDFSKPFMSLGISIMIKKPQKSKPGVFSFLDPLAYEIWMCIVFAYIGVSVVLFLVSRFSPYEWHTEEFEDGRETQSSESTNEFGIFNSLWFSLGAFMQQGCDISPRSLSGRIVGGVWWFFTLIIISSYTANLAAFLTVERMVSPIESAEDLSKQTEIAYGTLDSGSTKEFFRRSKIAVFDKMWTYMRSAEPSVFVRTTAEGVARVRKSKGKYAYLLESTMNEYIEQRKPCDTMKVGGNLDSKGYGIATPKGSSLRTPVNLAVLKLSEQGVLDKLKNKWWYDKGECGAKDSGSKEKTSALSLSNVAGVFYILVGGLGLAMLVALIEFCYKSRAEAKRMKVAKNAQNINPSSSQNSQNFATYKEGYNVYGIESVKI

target: T1, human GluR2 flip (unedited) AMPA receptor subunit (Homo sapiens, UniProt P42262); experiment: Calcium influx fluorescence assay (FLUO4, FLIPR), potentiation of glutamate response; assay type: cell-based; settings: HEK 293 cells expressing human GluR2 flip (unedited); 100 μM glutamate final; peak fluorescence
T1 construct: expressed in transfected cells
Procedure: The ability of the compounds of the invention to potentiate glutamate receptor-mediated response may be determined a) by using fluorescent calcium-indicator dyes such as FLUO4 and additionally b) by measuring glutamate-evoked current recorded from human GluR2 flip unedited HEK293 cells.
384 well plates are prepared containing confluent monolayer of HEK 293 cells either stably expressing or transiently transfected with human GluR2 flip (unedited) AMPA receptor subunit. These cells form functional homotetrameric AMPA receptors. The tissue culture medium in the wells are discarded and the wells are each washed three times with standard buffer (80 μL) for the stable cell line (145 mM NaCl, 5 mM KCl, 1 mM MgCl2, 2 mM CaCl2, 20 mM N-[2-hydroxyethyl]-piperazine-N-[2-ethanesulfonic acid (HEPES), 5.5 mM glucose, pH 7.3) or with a Na-free buffer for the transient transfected cells (145 mM N-methyl-glucamine instead of NaCl). The plates are then incubated for 60 minutes in the dark with 2 μM FLUO4-AM dye (20 μL) (Molecular Probes, Netherlands) at room temperature to allow cell uptake of the FLUO-4AM, which is then converted to FLUO-4 by intracellular esterases which is unable to leave the cell. After incubation each well is washed three times with buffer (80 μL) (30 μL of buffer remained in each well after washing).
Compounds of the invention (or reference compounds such as cyclothiazide) are dissolved in dimethylsulfoxide (DMSO) at a stock concentration of 10 mM. These solutions are further diluted with DMSO using a Biomek FX (Beckman Coulter) in a 384 compound plate. Each dilution (1 μL) is transferred to another compound plate and buffer (50 μL) is added. An agonist stimulus (glutamate) plate is prepared by dissolving sodium glutamate in water to give a concentration of 100 mM. This solution is diluted with buffer to give a final concentration of 500 μM and dispensed into another 384-well plate (50 μL/well) using a Multidrop (Thermolabsystems).
The cell plate is then transferred into a fluorescence imaging plate based reader [such as the FLIPR384 (Molecular Devices)]. A baseline fluorescence reading is taken over a 10 to 240 second period, and then 10 μL from each plate containing a compound of the invention made up in standard buffer solution (in a concentration range from 100 μM to 10 μM) is added (to give a final concentration in the range 30 μM to 3 μM). The fluorescence is read over 5 minute period. 500 μM glutamate solution (10 μL) is added (to give a final concentration of 100 μM). The fluorescence is then read over a 4 minute period. The activities of the compounds of the invention and reference compounds are determined by measuring peak fluorescence after the last addition. The activity is also expressed relative to the fluorescence increase induced by cyclothiazide at their maximum response (i.e. greater than 30 μM).
The assay described above is believed to have an effective limit of detection of a pEC50 in the region of 3.5-4.0 due to the limitations of compound solubility. The pEC50 result is generally considered to be accurate +/−0.3.

pEC50, ≥ 4.0:
CC(C)S(=O)(=O)N[C@@H]1COC[C@@H]1c1ccc(-c2ccsc2)cc1 (racemic) [Example 11, N-{cis-4-[4-(3-thienyl)phenyl]tetrahydro-3-furanyl}-2-propanesulfonamide]
CC(C)S(=O)(=O)N[C@@H]1COC[C@@H]1c1ccc(-c2ccc(F)cn2)cc1 (racemic) [Example 3, N-{cis-4-[4-(5-fluoro-2-pyridinyl)phenyl]tetrahydro-3-furanyl}-2-propanesulfonamide]
CC(C)S(=O)(=O)N[C@@H]1COC[C@@H]1c1ccc(-c2ccc(C#N)cc2)cc1 (racemic) [Example 8, N-[cis-4-(4′-cyano-4-biphenylyl)tetrahydro-3-furanyl]-2-propanesulfonamide]
CC(C)S(=O)(=O)N[C@@H]1COC[C@@H]1c1ccc(-c2cncc(F)c2)cc1 (racemic) [Example 4, N-{cis-4-[4-(5-fluoro-3-pyridinyl)phenyl]tetrahydro-3-furanyl}-2-propanesulfonamide]
CC(C)S(=O)(=O)N[C@@H]1COC[C@@H]1c1ccc(-c2cccs2)cc1 (racemic) [Example 12, N-{cis-4-[4-(2-thienyl)phenyl]tetrahydro-3-furanyl}-2-propanesulfonamide]
CC(C)S(=O)(=O)N[C@@H]1COC[C@@H]1c1ccc(-c2ccc(Cl)cn2)cc1 (racemic) [Example 5, N-{cis-4-[4-(5-chloro-2-pyridinyl)phenyl]tetrahydro-3-furanyl}-2-propanesulfonamide]
CC(=O)c1cccc(-c2ccc([C@H]3COC[C@H]3NS(=O)(=O)C(C)C)cc2)c1 (racemic) [Example 9, N-[cis-4-(3′-acetyl-4-biphenylyl)tetrahydro-3-furanyl]-2-propanesulfonamide]
CC(C)S(=O)(=O)N[C@@H]1COC[C@@H]1c1ccc(-c2ccc(F)cc2)cc1 (racemic) [Example 7, N-[cis-4-(4′-fluoro-4-biphenylyl)tetrahydro-3-furanyl]-2-propanesulfonamide]
Cc1ccc(-c2ccc([C@H]3COC[C@H]3NS(=O)(=O)C(C)C)cc2)cn1 (racemic) [Example 2, N-{cis-4-[4-(6-methyl-3-pyridinyl)phenyl]tetrahydro-3-furanyl}-2-propanesulfonamide]
CC(C)S(=O)(=O)N[C@@H]1COC[C@@H]1c1ccc(-c2ccc(F)nc2)cc1 (racemic) [Example 1, N-{cis-4-[4-(6-fluoro-3-pyridinyl)phenyl]tetrahydro-3-furanyl}-2-propanesulfonamide]
Cc1cncc(-c2ccc([C@H]3COC[C@H]3NS(=O)(=O)C(C)C)cc2)c1 (racemic) [Example 6, N-{cis-4-[4-(5-methyl-3-pyridinyl)phenyl]tetrahydro-3-furanyl}-2-propanesulfonamide]
CC(C)S(=O)(=O)N[C@@H]1COC[C@@H]1c1ccc(-c2ccc3c(c2)OCO3)cc1 (racemic) [Example 10, N-{cis-4-[4-(1,3-benzodioxol-5-yl)phenyl]tetrahydro-3-furanyl}-2-propanesulfonamide]
